Laboratory results: PubChem BioAssay AID493246 (Drosophila RNAi Screening Center, 2011)
The deposit covers about 21,000 reagents; shown is an unselected part of those with a known target gene and a result. In the full data, 429 (2%) were called active. 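Values are raw and not normalised between plates; calls rest on per-plate z-scores that were not deposited.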 A plus sign joins genes that one reagent is predicted to hit. Not stated in the record: the amount of reagent, the time to read-out.

- Purpose: 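Identify essential fly genes by loss of cell viability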 (primary screen)
- Cell system: Drosophila Kc and S2R+ cells
- Reagent: long dsRNA against Drosophila genes
- Detection: 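Cell number per well after knock-down, printed as raw plate values; calls were based on per-plate z-scores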
- Scale: Kc cell number and S2R+ cell number: higher = more cells remaining
- Call rule: 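Counted as a hit if cell number falls by a z-score of at least 3 within its plate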

target | dsRNA | Kc cell number, rep 1 | Kc cell number, rep 2 | S2R+ cell number, rep 1 | S2R+ cell number, rep 2 | outcome
ND-MWFE | DRSC06364 | 1.80e6 | 1.85e6 | 1.20e6 | 1.38e6 | inactive
ND-B14.5B | DRSC00346 | 1.55e6 | 1.52e6 | 1.12e6 | 1.25e6 | inactive
CG31913 | DRSC00892 | 1.40e6 | 1.52e6 | 9.89e5 | 1.16e6 | inactive
Tsen2 | DRSC01557 | 1.43e6 | 1.49e6 | 9.03e5 | 1.14e6 | inactive
Fbxl4 | DRSC19805 | 5.75e5 | – | 6.75e5 | – | inactive
nop5 | DRSC03582 | 1.46e6 | 1.39e6 | 1.07e6 | 1.18e6 | inactive
CG1635 | DRSC15131 | 5.06e5 | – | 7.64e5 | – | inactive
CG14085 | DRSC10089 | 1.46e6 | 1.72e6 | 1.22e6 | 1.34e6 | inactive
CG6295 | DRSC16012 | 1.64e6 | 1.67e6 | 9.52e5 | 1.06e6 | inactive
CG9240 | DRSC20177 | 1.42e6 | 1.49e6 | 9.26e5 | 9.98e5 | inactive
Parg | DRSC18696 | 5.75e5 | – | 8.69e5 | – | inactive
smal | DRSC02318 | 1.35e6 | 1.43e6 | 1.04e6 | 1.21e6 | inactive
smal | DRSC02319 | 1.64e6 | 1.52e6 | 1.13e6 | 1.32e6 | inactive
smal | DRSC02320 | 1.63e6 | 1.51e6 | 1.19e6 | 1.36e6 | inactive
smal | DRSC02504 | 1.56e6 | 1.47e6 | 1.06e6 | 1.26e6 | inactive
CG13198 | DRSC06323 | 1.50e6 | 1.56e6 | 1.27e6 | 1.39e6 | inactive
Klp98A | DRSC16724 | 1.51e6 | 1.58e6 | 1.01e6 | 1.18e6 | inactive
CG5897 | DRSC10555 | 1.52e6 | 1.51e6 | 1.40e6 | 1.49e6 | inactive
yellow-g2 | DRSC08338 | 1.32e6 | 1.36e6 | 1.03e6 | 1.33e6 | inactive
HGTX | DRSC09319 | 1.49e6 | 1.65e6 | 1.15e6 | 1.42e6 | inactive
HGTX | DRSC11181 | 1.32e6 | 1.42e6 | 1.28e6 | 1.32e6 | inactive
Sp1 | DRSC17622 | 1.42e6 | 1.69e6 | 1.04e6 | 1.12e6 | inactive
Sp1 | DRSC18717 | 1.50e6 | 1.47e6 | 1.04e6 | 1.15e6 | inactive
CG15207 (retired record) | DRSC19653 | 1.44e6 | 1.53e6 | 1.07e6 | 1.14e6 | inactive
Ctps | DRSC09342 | 1.34e6 | 1.47e6 | 1.15e6 | 1.31e6 | inactive
Ctps | DRSC10728 | 1.40e6 | 1.41e6 | 1.11e6 | 1.19e6 | inactive
Ctps | DRSC10729 | 1.51e6 | 1.47e6 | 1.24e6 | 1.35e6 | inactive
Ag5r2 | DRSC19328 | 1.46e6 | 1.48e6 | 1.09e6 | 1.14e6 | inactive
CG13622 | DRSC14624 | 1.66e6 | 1.68e6 | 1.03e6 | 1.16e6 | inactive
Sgt1 | DRSC16519 | 1.66e6 | 1.81e6 | 1.31e6 | 1.46e6 | inactive
CG14480 | DRSC06452 | 1.50e6 | 1.56e6 | 1.23e6 | 1.29e6 | inactive
CG14968 | DRSC08427 | 1.61e6 | 1.45e6 | 1.07e6 | 1.35e6 | inactive
key | DRSC04285 | 1.29e6 | 1.38e6 | 9.41e5 | 9.76e5 | inactive
CG13875 | DRSC08345 | 1.41e6 | 1.37e6 | 9.44e5 | 1.11e6 | inactive
CG15124 | DRSC06546 | 1.61e6 | 1.61e6 | 1.28e6 | 1.51e6 | inactive
CG1598 | DRSC06598 | 1.58e6 | 1.70e6 | 1.29e6 | 1.45e6 | inactive

Part of the list above, set out differently:
{"target": "CG6295", "dsRNA": "DRSC16012", "Kc cell number, rep 1": 1.64e6, "Kc cell number, rep 2": 1.67e6, "S2R+ cell number, rep 1": 9.52e5, "S2R+ cell number, rep 2": 1.06e6, "outcome": "inactive"}
{"target": "CG9240", "dsRNA": "DRSC20177", "Kc cell number, rep 1": 1.42e6, "Kc cell number, rep 2": 1.49e6, "S2R+ cell number, rep 1": 9.26e5, "S2R+ cell number, rep 2": 9.98e5, "outcome": "inactive"}
{"target": "Parg", "dsRNA": "DRSC18696", "Kc cell number, rep 1": 5.75e5, "S2R+ cell number, rep 1": 8.69e5, "outcome": "inactive"}
{"target": "smal", "dsRNA": "DRSC02318", "Kc cell number, rep 1": 1.35e6, "Kc cell number, rep 2": 1.43e6, "S2R+ cell number, rep 1": 1.04e6, "S2R+ cell number, rep 2": 1.21e6, "outcome": "inactive"}
{"target": "smal", "dsRNA": "DRSC02319", "Kc cell number, rep 1": 1.64e6, "Kc cell number, rep 2": 1.52e6, "S2R+ cell number, rep 1": 1.13e6, "S2R+ cell number, rep 2": 1.32e6, "outcome": "inactive"}
{"target": "smal", "dsRNA": "DRSC02320", "Kc cell number, rep 1": 1.63e6, "Kc cell number, rep 2": 1.51e6, "S2R+ cell number, rep 1": 1.19e6, "S2R+ cell number, rep 2": 1.36e6, "outcome": "inactive"}
{"target": "smal", "dsRNA": "DRSC02504", "Kc cell number, rep 1": 1.56e6, "Kc cell number, rep 2": 1.47e6, "S2R+ cell number, rep 1": 1.06e6, "S2R+ cell number, rep 2": 1.26e6, "outcome": "inactive"}
{"target": "CG13198", "dsRNA": "DRSC06323", "Kc cell number, rep 1": 1.50e6, "Kc cell number, rep 2": 1.56e6, "S2R+ cell number, rep 1": 1.27e6, "S2R+ cell number, rep 2": 1.39e6, "outcome": "inactive"}

More reagents follow:
target | dsRNA | Kc cell number, rep 1 | Kc cell number, rep 2 | S2R+ cell number, rep 1 | S2R+ cell number, rep 2 | outcome
bbx + waw | DRSC20575 | 1.50e6 | 1.52e6 | 1.04e6 | 1.14e6 | inactive
bbx + waw | DRSC20589 | 1.47e6 | 1.44e6 | 1.05e6 | 1.14e6 | inactive
Tom20 | DRSC10899 | 1.55e6 | 1.58e6 | 1.21e6 | 1.22e6 | inactive
CG10514 | DRSC14249 | 1.73e6 | 1.54e6 | 1.10e6 | 1.22e6 | inactive
Zasp67 | DRSC10169 | 1.58e6 | 1.77e6 | 1.27e6 | 1.35e6 | inactive
CG1750 | DRSC15240 | 4.48e5 | – | 7.48e5 | – | inactive
jim | DRSC11889 | 1.42e6 | 1.46e6 | 1.31e6 | 1.30e6 | inactive
CG2712 | DRSC18589 | 5.32e5 | – | 8.66e5 | – | inactive
CG32188 | DRSC09510 | 1.48e6 | 1.57e6 | 1.15e6 | 1.37e6 | inactive
CR31292 | DRSC13120 | 1.62e6 | 1.99e6 | 1.14e6 | 1.36e6 | inactive
CG13869 + CG11099 | DRSC06428 | 1.76e6 | 1.84e6 | 1.21e6 | 1.40e6 | inactive
CG13284 | DRSC02256 | 1.60e6 | 1.63e6 | 1.32e6 | 1.42e6 | inactive
CG6739 | DRSC02987 | 1.69e6 | 1.64e6 | 1.22e6 | 1.45e6 | inactive
CG42319 | DRSC06645 | 1.55e6 | 1.53e6 | 1.21e6 | 1.29e6 | inactive
CG42319 | DRSC06646 | 1.45e6 | 1.52e6 | 1.24e6 | 1.36e6 | inactive
P5CS | DRSC11831 | 1.51e6 | 1.59e6 | 1.23e6 | 1.28e6 | inactive
P5CS | DRSC11832 | 1.39e6 | 1.43e6 | 1.28e6 | 1.34e6 | inactive
CG42240 | DRSC18097 | 6.06e5 | – | 8.63e5 | – | inactive
CG17666 | DRSC10276 | 1.29e6 | 1.43e6 | 1.21e6 | 1.36e6 | inactive
CG18417 | DRSC10319 | 1.43e6 | 1.32e6 | 1.14e6 | 1.20e6 | inactive
CG14219 | DRSC19576 | 1.60e6 | 1.64e6 | 1.14e6 | 1.29e6 | inactive
CG13989 | DRSC02321 | 1.62e6 | 1.53e6 | 1.20e6 | 1.32e6 | inactive
CG31650 | DRSC03140 | 1.33e6 | 1.34e6 | 5.34e5 | 5.88e5 | inactive
